Assay results from publication PMC5836524.
Where a chain is given by its changes, count along the chain named. No constants are given. Whether binding was seen depends on the method and setting. Binding seen in cells or lysates may run through a third protein. Some binding calls cover weakened binding; strength is not graded here. For part of these data: Where a sequence is shown, tags or fusion partners need not be part of it.

By UniProt entry, the sequences of proteins in these tests, tags left out. Residues count along the entry.
UniProt P62944, residues 616-937: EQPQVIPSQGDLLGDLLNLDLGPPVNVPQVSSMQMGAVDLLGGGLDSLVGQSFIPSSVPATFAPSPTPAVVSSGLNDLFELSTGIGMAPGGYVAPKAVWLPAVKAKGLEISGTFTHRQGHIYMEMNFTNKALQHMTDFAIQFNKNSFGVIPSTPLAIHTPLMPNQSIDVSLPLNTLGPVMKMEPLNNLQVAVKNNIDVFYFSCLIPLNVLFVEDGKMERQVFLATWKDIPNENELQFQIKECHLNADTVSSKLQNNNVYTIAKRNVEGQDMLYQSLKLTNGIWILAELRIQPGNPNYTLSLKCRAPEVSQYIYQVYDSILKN
UniProt Q00610: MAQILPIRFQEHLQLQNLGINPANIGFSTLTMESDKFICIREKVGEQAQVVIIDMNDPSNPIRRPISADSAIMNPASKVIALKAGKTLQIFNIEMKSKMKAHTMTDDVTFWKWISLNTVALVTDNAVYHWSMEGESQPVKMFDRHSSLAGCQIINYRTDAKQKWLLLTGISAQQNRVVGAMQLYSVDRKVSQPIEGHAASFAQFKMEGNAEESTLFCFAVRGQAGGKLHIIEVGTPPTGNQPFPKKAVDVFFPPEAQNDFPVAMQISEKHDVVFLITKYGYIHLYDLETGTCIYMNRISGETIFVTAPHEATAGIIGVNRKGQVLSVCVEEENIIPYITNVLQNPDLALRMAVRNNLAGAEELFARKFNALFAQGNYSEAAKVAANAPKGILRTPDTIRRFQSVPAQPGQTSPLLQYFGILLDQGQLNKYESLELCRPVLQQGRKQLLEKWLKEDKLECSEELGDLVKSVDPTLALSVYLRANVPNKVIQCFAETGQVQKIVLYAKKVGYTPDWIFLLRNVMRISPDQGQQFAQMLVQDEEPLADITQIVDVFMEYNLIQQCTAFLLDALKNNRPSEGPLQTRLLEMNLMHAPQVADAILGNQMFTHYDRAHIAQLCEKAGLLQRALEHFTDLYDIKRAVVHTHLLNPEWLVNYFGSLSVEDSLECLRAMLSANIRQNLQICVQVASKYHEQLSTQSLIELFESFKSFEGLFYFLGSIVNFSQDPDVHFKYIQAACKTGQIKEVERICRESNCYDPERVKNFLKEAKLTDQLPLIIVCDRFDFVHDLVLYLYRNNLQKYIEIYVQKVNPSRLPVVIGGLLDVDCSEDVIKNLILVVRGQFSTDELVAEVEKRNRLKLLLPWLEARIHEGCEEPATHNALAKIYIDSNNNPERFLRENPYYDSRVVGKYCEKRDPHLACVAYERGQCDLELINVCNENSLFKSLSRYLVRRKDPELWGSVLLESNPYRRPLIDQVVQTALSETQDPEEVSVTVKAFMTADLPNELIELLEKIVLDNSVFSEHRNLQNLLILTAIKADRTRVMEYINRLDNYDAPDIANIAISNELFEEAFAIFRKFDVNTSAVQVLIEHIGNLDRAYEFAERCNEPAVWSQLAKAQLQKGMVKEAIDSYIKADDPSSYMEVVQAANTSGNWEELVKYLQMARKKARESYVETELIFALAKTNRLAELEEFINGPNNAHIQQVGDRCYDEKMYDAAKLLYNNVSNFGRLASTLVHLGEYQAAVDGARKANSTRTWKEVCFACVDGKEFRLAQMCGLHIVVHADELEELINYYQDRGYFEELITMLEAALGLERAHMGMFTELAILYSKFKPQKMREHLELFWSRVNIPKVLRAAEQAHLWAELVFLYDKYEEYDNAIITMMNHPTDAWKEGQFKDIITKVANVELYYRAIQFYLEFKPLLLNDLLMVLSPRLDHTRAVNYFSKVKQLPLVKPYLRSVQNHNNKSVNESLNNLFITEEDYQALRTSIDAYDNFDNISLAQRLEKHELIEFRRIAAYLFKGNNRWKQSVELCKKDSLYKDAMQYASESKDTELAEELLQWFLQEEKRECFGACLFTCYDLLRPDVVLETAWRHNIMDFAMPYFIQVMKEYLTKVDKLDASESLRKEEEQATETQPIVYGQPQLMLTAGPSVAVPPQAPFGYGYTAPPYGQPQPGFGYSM

Key:
[1] = target: T1, EGFP-Eps15R wild type, full-length (aa 1-907) (mouse) (UniProt Q60902); assay: co-IP; EGFP-tagged Eps15R, its truncations or mutant, EGFP-Eps15 or EGFP immunoprecipitated from HeLa cell extract (20 mM HEPES pH 7.4, 100 mM NaCl, 0.5 mM TCEP, 0.1% NP-40; 4°C); immunoblot for clathrin, AP2 β-adaptin and EGFP
T1 sequence: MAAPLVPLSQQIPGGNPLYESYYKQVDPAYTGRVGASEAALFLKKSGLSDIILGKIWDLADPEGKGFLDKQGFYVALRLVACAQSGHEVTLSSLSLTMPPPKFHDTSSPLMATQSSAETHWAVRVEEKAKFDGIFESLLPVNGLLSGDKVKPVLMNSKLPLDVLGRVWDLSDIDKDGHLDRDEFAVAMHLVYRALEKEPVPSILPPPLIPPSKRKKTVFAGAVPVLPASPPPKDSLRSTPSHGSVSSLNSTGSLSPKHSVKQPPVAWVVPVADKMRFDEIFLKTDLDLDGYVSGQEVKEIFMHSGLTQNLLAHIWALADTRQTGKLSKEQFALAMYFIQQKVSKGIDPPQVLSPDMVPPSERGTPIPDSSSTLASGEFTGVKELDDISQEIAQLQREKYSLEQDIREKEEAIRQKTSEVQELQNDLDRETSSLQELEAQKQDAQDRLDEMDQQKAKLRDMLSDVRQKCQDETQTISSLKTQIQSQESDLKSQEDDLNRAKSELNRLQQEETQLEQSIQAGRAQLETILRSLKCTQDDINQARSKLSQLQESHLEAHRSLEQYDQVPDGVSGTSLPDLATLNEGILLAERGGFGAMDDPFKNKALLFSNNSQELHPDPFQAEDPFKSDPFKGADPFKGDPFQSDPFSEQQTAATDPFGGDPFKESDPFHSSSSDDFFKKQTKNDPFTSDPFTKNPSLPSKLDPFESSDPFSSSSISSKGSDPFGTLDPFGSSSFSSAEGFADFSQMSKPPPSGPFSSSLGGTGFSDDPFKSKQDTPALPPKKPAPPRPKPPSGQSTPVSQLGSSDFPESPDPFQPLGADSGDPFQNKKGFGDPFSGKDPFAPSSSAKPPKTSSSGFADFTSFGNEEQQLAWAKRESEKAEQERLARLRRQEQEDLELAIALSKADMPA

[2] = target: T2, EGFP-Eps15R F703A/F722A/F728A triple mutant (mouse) (UniProt Q60902); assay: as above
T2 sequence: T1 sequence with F703A, F722A, F728A

[3] = target: GST-AP2-β2-appendage with hinge (aa 616-937) (rat) (UniProt P62944); assay: pull-down; GST-AP2-β-appendage with hinge on beads incubated with lysates from HeLa cells expressing EGFP-Eps15R wild type or the F703A, F722A, F728A mutant; clathrin and EGFP immunoblotting; only the target purified

Measured: binding

clathrin (endogenous, detected by blot for clathrin heavy chain) (from UniProt Q00610 1-1675)
binds: all assays above
